Here are results for four substances from PMC4122391, “Analysis of Functions of VIP1 and Its Close Homologs in Osmosensory Responses of Arabidopsis thaliana”.

No constants are given. Whether binding was seen depends on the method and setting. Binding can be weak; no strength is given. Where a sequence is shown, tags or fusion partners need not be part of it. For some of these results: In cells and extracts the contact can be indirect.

Experiment [1] has as its target T1, GAL4 DNA-binding domain-fused VIP1ΔN164 (C-terminal region, amino acids 165–341, of VIP1) (Arabidopsis thaliana) (UniProt Q9MA75).
T1 sequence: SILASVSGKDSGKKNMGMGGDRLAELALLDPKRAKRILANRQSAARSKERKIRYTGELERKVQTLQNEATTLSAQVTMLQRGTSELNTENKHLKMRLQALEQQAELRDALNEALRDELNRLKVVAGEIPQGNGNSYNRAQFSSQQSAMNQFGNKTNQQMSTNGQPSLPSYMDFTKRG
The experiment can be described thus: two-hybrid; S. cerevisiae AH109 co-transformed with pGBKT7-VIP1ΔN164 (GAL4 BD fusion, bait) and pGADT7-Rec constructs (GAL4 AD fusions); growth on SD medium lacking adenine and histidine; BD alone as control.

The target in experiment [2] is T2, VIP1 fused to nYFP or to cYFP (BiFC constructs) (Arabidopsis thaliana) (UniProt Q9MA75).
T2 sequence: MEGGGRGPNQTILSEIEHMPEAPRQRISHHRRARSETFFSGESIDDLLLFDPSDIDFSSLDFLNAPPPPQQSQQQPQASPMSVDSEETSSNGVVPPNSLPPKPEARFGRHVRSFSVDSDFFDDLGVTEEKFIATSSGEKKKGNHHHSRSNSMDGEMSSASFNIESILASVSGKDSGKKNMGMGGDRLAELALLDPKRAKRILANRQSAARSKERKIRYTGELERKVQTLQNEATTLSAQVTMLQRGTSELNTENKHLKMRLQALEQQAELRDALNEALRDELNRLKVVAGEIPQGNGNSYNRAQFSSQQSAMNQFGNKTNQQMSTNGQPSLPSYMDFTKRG
The experiment can be described thus: split reporter; BiFC: nYFP-fused VIP1 and cYFP-fused proteins co-introduced into onion epidermal cells by particle bombardment; YFP fluorescence by epifluorescence microscopy; nYFP alone and cYFP alone as negative controls.

Take “GAL4 activation domain-fused AtbZIP52 (Arabidopsis thaliana)”: in experiment [1], the binding result is recorded as “binds”.
For “GAL4 activation domain-fused AtbZIP30 (Arabidopsis thaliana)”, the binding entry in experiment [1] was “binds”.
For the substance “cYFP-fused AtbZIP52 (Arabidopsis thaliana)”, the binding result in experiment [2] is listed as “binds”.
As for “GAL4 activation domain-fused AtbZIP29 (Arabidopsis thaliana)”, in experiment [1], the binding entry was “binds”.
